These are yes or no findings as the source states them, for the method shown. In cells and extracts the contact can be indirect. A yes stands for co-enrichment or nearness to the bait. Other partners may have been found.
Target: T1, IRS4 (WT)-PafA (human) (UniProt O14654)
T1 sequence: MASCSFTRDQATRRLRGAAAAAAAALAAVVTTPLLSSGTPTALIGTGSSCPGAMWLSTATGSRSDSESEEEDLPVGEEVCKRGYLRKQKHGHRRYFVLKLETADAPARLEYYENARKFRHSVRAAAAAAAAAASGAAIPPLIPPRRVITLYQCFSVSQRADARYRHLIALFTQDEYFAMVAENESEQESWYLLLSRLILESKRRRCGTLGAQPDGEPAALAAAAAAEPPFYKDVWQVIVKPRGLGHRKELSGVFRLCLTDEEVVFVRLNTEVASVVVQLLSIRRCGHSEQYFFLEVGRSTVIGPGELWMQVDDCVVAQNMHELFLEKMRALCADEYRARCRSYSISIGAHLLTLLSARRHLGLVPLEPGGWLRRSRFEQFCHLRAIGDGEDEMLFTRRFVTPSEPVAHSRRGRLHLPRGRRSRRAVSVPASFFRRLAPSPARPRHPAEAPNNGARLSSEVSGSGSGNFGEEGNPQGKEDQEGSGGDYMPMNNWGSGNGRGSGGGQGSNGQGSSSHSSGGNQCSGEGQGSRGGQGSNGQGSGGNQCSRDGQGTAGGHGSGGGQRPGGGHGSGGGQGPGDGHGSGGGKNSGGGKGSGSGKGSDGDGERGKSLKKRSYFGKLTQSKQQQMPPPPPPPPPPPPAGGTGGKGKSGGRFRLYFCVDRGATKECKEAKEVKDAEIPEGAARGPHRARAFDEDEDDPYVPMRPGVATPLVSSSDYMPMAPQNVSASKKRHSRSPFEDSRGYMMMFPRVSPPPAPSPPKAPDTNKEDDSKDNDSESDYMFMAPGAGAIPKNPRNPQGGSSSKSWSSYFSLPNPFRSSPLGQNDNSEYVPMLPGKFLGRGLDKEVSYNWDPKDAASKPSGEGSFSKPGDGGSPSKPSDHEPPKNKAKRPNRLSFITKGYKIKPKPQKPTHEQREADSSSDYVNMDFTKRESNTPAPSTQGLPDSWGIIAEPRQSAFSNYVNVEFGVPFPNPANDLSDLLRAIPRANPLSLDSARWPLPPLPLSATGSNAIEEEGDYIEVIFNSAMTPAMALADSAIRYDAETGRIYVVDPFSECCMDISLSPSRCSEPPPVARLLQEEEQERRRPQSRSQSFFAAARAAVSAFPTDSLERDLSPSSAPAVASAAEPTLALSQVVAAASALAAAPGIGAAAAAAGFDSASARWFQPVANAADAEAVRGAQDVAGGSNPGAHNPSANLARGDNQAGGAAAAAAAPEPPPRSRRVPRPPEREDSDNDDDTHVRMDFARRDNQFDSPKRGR
Test: proximity labelling; PUP-IT: IRS4 (WT)-PafA or IRS4 (YF)-PafA stably expressed in iPup OVCAR-5 cells, doxycycline 2 μg/ml and biotin 4 μM for 24 hr, tagged proteins identified by mass spectrometry, triplicates, LFQ intensity of WT against YF mutants

Sequences of proteins named here, by UniProt entry; tags and fusion partners are left off. Residues count along the entry.
UniProt A2AJT9: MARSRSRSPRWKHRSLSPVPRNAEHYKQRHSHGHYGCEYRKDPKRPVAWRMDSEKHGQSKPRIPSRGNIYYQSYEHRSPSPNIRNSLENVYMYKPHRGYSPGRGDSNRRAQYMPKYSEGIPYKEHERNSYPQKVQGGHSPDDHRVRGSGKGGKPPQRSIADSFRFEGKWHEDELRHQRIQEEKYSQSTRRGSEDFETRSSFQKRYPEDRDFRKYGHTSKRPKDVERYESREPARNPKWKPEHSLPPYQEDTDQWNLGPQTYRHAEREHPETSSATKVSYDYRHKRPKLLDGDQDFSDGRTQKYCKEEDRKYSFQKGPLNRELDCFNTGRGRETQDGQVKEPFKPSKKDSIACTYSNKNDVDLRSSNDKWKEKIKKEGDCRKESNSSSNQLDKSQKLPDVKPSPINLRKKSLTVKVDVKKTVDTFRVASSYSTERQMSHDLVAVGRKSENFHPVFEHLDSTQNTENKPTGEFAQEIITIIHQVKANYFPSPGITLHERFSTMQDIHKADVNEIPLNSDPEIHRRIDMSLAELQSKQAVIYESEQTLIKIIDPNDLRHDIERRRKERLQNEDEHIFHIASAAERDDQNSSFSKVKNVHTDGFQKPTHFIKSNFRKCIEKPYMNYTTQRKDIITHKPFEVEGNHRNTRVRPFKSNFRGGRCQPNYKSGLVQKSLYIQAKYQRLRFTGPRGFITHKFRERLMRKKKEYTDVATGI
UniProt Q9NWH9: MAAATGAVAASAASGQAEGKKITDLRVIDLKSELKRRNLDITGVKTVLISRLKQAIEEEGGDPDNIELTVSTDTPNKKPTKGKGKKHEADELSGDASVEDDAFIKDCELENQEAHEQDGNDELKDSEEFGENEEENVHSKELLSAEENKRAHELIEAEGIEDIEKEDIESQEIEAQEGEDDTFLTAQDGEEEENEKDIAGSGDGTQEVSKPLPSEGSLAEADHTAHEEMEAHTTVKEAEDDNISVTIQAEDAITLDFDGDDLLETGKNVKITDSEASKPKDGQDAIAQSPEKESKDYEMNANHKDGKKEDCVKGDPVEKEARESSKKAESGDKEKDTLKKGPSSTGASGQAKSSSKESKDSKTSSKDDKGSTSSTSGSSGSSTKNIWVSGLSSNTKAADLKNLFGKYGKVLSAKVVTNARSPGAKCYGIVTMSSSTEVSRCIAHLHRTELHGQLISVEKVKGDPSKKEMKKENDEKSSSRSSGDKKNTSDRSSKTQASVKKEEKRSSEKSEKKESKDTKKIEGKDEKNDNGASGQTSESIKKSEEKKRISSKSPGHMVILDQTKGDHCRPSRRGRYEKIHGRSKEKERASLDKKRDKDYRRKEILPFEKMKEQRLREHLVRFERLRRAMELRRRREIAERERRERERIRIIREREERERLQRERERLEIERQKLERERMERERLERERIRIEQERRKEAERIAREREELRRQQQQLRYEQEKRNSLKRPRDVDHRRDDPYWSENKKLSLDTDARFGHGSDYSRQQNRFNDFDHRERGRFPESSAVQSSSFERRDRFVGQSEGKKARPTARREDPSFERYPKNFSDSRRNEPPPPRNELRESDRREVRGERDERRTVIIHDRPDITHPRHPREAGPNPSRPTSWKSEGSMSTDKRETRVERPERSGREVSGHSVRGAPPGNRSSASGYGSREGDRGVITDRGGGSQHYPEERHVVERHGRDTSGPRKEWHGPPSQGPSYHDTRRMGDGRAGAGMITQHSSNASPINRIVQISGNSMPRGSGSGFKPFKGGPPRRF
UniProt O75348: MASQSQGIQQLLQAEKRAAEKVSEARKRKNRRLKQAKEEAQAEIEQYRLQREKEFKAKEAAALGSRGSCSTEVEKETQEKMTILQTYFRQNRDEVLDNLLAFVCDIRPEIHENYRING
UniProt P55854, residues 1-92: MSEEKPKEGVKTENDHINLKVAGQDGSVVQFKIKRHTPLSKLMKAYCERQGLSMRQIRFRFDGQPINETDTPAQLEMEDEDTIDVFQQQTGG

Q: With CXorf23 (from UniProt A2AJT9 1-711) as the molecule, how does the binding read?
A: binds

Q: With SLTM (from UniProt Q9NWH9 1-1034) as the molecule, how does the binding read?
A: binds

Q: Which binding does the source give for ATP6V1G1 (from UniProt O75348 1-118) here?
A: binds

Q: SUMO3 (from UniProt P55854 1-92) was tested. Which binding did it give?
A: binds

B1: C18orf25 (protein, UniProt Q96B23 1-404)
chain: MKMEEAVGKVEELIESEAPPKASEQETAKEEDGSVELESQVQKDGVADSTVISSMPCLLMELRRDSSESQLASTESDKPTTGRVYESDSSNHCMLSPSSSGHLADSDTLSSAEENEPSQAETAVEGDPSGVSGATVGRKSRRSRSESETSTMAAKKNRQSSDKQNGRVAKVKGHRSQKHKERIRLLRQKREAAARKKYNLLQDSSTSDSDLTCDSSTSSSDDDEEVSGSSKTITAEIPDGPPVVAHYDMSDTNSDPEVVNVDNLLAAAVVQEHSNSVGGQDTGATWRTSGLLEELNAEAGHLDPGFLASDKTSAGNAPLNEEINIASSDSEVEIVGVQEHARCVHPRGGVIQSVSSWKHGSGTQYVSTRQTQSWTAVTPQQTWASPAEVVDLTLDEDSRRKYLL
Q: With B1 as the molecule, how does the binding read?
A: binds
